These results are taken from patent publication US20260159575A1.

By UniProt entry, the sequences of proteins in these tests, tags left out. Residues count along the entry.
UniProt P10636, residues 561-685: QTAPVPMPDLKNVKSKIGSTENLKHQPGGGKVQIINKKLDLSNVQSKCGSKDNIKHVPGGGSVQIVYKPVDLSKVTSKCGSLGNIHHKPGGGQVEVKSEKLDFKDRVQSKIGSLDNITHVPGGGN

No constants are given. Whether binding was seen depends on the method and setting. Some binding calls cover weakened binding; strength is not graded here.

The target in this test is MTBR-tau (human) (UniProt P10636). Briefly: target engagement in human CSF after IV dosing; E2814-bound and free MTBR-tau proxy peptide concentrations measured.

B1: antibody E2814 (antibody, human IgG1, kappa, V domains shown)
VH: EVQLLESGGGLVQPGGSLRLSCAASGYTFTTYWITWVRQAPGKGLEWVSDIYPGSSISNYNEKFKSRFTISVDNSKNTLYLQMNSLRAEDTAVYYCAREDGYDAWFAYWGQGTLVTVSS
VL: DIQMTQSPSSLSASVGDRVTITCRSSQSILHSNGNTYLEWYQQKPGKAPKLLISKVSNRFSGVPSRFSGSGSGTDFTLTISSLQPEDFATYYCFQGSHVPFTFGQGTKLEIKR
For B1, the binding result is given as “binds”.
